These are yes or no findings as the source states them, for the method shown. In cells and extracts the contact can be indirect. Some results given as binding are weak or reduced against the parent protein; the word gives no strength.
Target: KMT2D (human (endogenous in OCI-Ly7 and SU-DHL4)) (UniProt O14686)
Assay: co-IP

Amino acid sequences for entries named in this document (tags omitted).
UniProt O14686: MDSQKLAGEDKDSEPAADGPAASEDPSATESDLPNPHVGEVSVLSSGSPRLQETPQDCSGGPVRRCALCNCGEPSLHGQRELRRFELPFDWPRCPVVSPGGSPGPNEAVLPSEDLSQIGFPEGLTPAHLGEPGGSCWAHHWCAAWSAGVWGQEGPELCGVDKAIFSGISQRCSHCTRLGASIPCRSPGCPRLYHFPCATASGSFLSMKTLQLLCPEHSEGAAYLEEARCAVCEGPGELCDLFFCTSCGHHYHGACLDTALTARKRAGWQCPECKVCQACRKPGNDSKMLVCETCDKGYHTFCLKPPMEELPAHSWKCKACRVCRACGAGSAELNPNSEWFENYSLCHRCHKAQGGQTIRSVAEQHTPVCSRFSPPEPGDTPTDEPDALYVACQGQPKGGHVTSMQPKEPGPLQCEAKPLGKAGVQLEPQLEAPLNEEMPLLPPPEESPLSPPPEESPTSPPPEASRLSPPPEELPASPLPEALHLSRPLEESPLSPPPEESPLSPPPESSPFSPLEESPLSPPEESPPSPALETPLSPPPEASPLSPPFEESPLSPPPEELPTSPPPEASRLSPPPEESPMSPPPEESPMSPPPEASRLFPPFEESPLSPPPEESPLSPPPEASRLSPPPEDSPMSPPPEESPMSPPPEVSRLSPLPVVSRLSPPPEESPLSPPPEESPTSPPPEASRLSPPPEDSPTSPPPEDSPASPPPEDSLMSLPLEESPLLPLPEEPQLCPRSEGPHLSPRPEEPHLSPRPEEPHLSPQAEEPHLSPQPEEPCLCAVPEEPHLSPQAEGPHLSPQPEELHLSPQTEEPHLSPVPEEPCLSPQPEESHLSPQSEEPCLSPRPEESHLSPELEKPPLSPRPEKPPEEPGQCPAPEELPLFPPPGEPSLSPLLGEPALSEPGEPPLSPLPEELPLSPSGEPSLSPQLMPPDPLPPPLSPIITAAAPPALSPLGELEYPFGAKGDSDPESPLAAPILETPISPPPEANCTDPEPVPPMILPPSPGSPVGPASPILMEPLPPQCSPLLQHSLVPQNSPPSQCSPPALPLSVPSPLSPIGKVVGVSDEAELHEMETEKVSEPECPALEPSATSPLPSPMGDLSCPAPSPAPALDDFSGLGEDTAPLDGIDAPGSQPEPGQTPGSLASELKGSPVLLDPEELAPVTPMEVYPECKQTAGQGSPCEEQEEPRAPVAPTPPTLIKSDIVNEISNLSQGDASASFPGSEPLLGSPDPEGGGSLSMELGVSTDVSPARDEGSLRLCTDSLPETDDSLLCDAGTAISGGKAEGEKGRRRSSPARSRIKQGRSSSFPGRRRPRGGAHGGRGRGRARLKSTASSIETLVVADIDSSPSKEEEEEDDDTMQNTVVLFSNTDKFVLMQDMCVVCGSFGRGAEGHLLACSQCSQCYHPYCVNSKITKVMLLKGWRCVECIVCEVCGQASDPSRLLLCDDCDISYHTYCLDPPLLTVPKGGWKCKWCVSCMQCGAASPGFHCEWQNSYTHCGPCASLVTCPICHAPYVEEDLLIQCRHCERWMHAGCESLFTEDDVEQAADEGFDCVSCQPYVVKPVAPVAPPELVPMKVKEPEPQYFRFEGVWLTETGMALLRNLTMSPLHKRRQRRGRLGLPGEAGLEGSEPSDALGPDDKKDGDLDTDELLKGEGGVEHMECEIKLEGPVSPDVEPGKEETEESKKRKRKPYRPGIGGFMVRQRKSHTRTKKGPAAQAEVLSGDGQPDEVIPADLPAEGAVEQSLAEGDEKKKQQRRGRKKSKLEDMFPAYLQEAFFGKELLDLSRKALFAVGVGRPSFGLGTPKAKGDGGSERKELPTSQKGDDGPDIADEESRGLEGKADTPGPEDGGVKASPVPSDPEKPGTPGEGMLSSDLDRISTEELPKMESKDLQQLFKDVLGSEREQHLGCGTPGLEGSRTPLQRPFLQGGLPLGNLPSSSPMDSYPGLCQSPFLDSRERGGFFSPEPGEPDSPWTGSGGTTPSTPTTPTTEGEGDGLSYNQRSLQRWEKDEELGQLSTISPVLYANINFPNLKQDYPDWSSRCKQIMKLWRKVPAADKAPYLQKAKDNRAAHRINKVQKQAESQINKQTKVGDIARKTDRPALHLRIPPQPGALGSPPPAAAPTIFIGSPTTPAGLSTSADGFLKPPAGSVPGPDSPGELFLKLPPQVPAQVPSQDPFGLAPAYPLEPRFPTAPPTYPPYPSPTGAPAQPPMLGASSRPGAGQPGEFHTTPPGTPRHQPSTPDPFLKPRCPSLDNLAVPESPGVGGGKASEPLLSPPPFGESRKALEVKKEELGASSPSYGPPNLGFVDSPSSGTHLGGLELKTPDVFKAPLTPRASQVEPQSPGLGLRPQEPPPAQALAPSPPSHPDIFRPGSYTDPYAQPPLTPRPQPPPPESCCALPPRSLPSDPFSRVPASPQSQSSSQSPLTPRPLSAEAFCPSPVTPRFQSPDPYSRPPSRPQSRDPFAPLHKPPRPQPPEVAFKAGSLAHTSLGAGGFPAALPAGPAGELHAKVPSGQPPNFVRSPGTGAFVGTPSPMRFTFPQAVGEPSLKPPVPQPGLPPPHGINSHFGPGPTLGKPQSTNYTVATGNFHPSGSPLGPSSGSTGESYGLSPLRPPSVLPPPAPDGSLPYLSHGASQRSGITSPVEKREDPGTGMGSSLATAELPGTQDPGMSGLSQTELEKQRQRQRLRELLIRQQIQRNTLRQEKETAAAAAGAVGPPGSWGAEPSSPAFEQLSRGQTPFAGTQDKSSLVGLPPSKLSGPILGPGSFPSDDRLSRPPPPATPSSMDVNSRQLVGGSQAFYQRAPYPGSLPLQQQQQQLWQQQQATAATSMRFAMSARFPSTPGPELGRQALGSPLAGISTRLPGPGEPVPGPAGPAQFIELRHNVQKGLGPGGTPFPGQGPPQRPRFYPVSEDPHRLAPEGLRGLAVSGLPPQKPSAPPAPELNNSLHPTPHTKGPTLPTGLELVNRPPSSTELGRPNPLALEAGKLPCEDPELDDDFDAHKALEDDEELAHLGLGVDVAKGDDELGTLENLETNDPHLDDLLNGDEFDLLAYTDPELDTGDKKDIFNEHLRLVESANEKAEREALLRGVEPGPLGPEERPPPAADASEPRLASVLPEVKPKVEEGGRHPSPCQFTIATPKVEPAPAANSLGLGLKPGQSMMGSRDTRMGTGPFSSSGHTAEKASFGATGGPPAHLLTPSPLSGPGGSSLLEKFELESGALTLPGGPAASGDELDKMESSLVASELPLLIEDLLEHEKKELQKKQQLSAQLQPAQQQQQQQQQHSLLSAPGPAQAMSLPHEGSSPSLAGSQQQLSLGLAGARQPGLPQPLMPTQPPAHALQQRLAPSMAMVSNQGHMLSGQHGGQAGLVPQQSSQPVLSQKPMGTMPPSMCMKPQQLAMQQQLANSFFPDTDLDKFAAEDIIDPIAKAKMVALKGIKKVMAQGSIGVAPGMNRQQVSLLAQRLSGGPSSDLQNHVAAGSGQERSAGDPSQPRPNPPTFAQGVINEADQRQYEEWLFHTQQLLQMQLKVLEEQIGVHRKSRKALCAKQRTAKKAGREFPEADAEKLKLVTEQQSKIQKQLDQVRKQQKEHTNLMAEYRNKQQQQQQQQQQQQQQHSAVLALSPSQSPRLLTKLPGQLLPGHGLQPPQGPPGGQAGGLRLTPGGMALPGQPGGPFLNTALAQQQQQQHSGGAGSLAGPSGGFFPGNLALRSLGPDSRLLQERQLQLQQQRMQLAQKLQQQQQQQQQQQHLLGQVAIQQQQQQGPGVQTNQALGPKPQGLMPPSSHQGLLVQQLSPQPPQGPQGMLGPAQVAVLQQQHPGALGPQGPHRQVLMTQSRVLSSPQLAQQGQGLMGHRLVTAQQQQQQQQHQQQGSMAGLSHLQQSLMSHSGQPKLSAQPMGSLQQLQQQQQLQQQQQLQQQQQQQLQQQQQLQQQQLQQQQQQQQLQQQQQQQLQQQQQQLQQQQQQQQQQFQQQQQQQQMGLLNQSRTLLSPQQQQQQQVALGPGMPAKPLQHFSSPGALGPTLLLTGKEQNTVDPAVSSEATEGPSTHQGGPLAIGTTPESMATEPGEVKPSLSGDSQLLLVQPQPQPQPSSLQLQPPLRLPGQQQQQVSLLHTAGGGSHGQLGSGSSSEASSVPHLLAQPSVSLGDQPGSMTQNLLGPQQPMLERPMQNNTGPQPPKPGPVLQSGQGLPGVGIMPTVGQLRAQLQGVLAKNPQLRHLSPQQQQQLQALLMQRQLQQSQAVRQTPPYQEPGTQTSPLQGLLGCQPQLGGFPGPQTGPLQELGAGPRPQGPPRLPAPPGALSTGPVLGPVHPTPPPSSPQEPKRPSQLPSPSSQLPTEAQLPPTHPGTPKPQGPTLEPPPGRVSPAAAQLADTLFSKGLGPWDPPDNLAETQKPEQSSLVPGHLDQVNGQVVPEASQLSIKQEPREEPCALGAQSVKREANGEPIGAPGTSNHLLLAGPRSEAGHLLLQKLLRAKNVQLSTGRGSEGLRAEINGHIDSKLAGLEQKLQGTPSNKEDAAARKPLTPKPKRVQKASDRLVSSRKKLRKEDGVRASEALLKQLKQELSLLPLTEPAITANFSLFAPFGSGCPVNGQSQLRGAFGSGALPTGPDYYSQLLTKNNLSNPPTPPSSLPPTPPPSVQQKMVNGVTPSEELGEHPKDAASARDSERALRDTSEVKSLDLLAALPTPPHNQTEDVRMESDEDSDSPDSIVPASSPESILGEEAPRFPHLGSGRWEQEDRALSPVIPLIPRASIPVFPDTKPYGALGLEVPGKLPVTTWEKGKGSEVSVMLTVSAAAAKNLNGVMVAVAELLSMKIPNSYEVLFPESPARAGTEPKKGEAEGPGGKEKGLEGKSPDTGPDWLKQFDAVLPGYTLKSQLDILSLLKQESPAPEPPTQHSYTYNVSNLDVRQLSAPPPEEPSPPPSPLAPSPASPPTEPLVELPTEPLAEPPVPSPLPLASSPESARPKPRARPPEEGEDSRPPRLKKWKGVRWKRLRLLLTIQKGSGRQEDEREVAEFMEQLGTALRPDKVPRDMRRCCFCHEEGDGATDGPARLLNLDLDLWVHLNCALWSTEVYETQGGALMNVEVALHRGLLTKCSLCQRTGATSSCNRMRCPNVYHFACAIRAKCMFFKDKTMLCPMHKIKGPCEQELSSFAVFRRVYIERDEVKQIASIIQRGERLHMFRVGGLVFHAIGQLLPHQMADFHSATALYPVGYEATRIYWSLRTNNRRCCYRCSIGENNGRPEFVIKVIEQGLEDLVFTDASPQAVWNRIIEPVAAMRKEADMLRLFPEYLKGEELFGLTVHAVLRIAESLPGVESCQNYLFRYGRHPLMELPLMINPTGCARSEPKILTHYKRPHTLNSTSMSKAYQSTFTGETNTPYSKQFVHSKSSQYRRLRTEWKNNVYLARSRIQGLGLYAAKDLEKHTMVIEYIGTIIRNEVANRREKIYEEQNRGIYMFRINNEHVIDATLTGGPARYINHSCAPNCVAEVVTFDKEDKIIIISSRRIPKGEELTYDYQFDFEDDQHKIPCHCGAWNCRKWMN

- binding: binds
Substance: CREBBP (from UniProt Q92793 1-2442)
